Measured data: PubChem BioAssay AID686943 (Drosophila RNAi Screening Center, 2013)
In all, the deposit lists about 23,000 reagents; this is an unselected part of those with a known target gene and a result. 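Extra replicates exist only for a retested subset of genes; insulin dose and duration not given; both raised and lowered dpERK matter.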 Names joined by + are all predicted targets of the reagent. Not stated in the record: the amount of reagent, the time to read-out.

- Aim: 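Search across the genome for regulators of signalling from receptor tyrosine kinase to ERK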 (primary screen)
- System: Drosophila S2R+ haemocyte-like cells expressing YFP-tagged ERK (Rolled)
- Reagents: long dsRNA against Drosophila genes
- Treatment: insulin stimulation versus unstimulated cells; dose and duration not given
- Detection: 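Antibody staining for doubly phosphorylated ERK divided by ERK-YFP signal, as plate z-scores, in insulin-treated and untreated cells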
- Scale: replicate 1, z-score of dpERK with insulin and replicate 2, z-score of dpERK with insulin: higher = more active ERK per ERK-YFP after insulin; replicate 1, z-score of dpERK under basal conditions: higher = more basal active ERK per ERK-YFP; replicate 1, z-score of ERK-YFP with insulin: higher = more YFP-tagged ERK signal

predicted target | DRSC id | replicate 1, z-score of dpERK with insulin | replicate 2, z-score of dpERK with insulin | replicate 1, z-score of dpERK under basal conditions | replicate 1, z-score of ERK-YFP with insulin
CG31975 + ovm | DRSC00323 | -0.82 | -0.53 | -0.88 | -0.4
AspRS-m (Aspartyl-tRNA synthetase, mitochondrial) | DRSC02646 | 0.91 | 0.17 | 0.18 | -0.05
put (punt) | DRSC17039 | -0.97 | -0.23 | -0.21 | 0.56
CG33502 + CG32857 + CG32500 | DRSC20817 | 0.61 | -0.16 | 0.45 | 0.13
CG33502 + CG32857 + CG32500 | DRSC21038 | 0.43 | -0.33 | -0.48 | -0.12
CG14892 | DRSC15014 | 1.9 | -0.52 | 0.63 | -1.02
CG3868 | DRSC10380 | -0.14 | -0.38 | 0.09 | -0.77
VhaM9.7-a (Vacuolar H[+] ATPase M9.7 subunit a) | DRSC08289 | 0.34 | 0.83 | -0.84 | 0.48
sip2 (septin interacting protein 2) | DRSC03154 | -0.14 | 0.58 | -0.37 | -0.21
spir (spire) | DRSC03619 | 0.49 | 0.52 | 0.83 | 0.05
GNBP2 (Gram-negative bacteria binding protein 2) | DRSC10404 | 0.56 | 0.09 | 0.44 | -0.48
sxe2 (sex-specific enzyme 2) | DRSC15692 | -0.4 | -0.67 | -0.23 | -0.51
CG31211 | DRSC14953 | 0.1 | 1.48 | -0.02 | 0.15
CG31211 | DRSC15344 | 1.31 | 1.66 | 0.19 | 0.73
CG31211 | DRSC21478 | -1.26 | -0.62 | 2.08 | 0.18
arr (arrow) | DRSC07451 | 0.5 | 0.17 | -0.39 | -0.09
CG31778 | DRSC00283 | -0.38 | 0 | -0.32 | -0.17
kst (karst) | DRSC08719 | 1.32 | -1.06 | 1.49 | 0.26
CG4372 | DRSC04466 | -0.31 | -0.32 | -0.05 | 0.13
dtr (defective transmitter release) | DRSC01847 | 0.09 | 0.48 | 0.37 | 0.21
CG8066 | DRSC16374 | -0.08 | -0.51 | 0.33 | 0.42
Hsp67Ba (Heat shock gene 67Ba) | DRSC11191 | -0.92 | -0.24 | -0.81 | 1.72
Cadps (Calcium-dependent secretion activator) | DRSC21057 | 0.09 | 0.11 | -0.43 | 0.17
Cadps (Calcium-dependent secretion activator) | DRSC22200 | -3.53 | 0.42 | 0.84 | -1.69
CG30383 | DRSC05062 | 0.12 | -0.41 | 0.42 | -0.11
CG13102 + Rcd-1r | DRSC03266 | -0.13 | 0.82 | -0.02 | 0.34
CG32579 | DRSC19872 | -0.28 | -0.13 | -0.5 | 0.39
pkaap | DRSC01925 | 0.11 | 0 | 1.57 | -0.4
org-1 (optomotor-blind-related-gene-1) | DRSC18810 | -1.37 | -1.29 | -1.89 | -0.79
CG4362 | DRSC15567 | 0.1 | 0.51 | -1.14 | 0.57
Pp1-Y1 (Protein phosphatase 1, Y-linked 1) | DRSC20896 | -1.7 | -2.16 | 1.45 | 3.02
CG31200 | DRSC15285 | -0.22 | 0.71 | 0.28 | 0.12
CG4645 | DRSC19907 | 0.12 | 0.55 | 1.81 | -0.21
CG13607 | DRSC14610 | -0.23 | 0 | 1.31 | -0.19
wrm1 + wrm2 | DRSC11007 | 0.45 | -0.37 | 0.24 | -0.25
Edem1 (ER degradation enhancer, mannosidase alpha-like 1) | DRSC18573 | -0.55 | 0.74 | -0.29 | 0.6
CG13044 | DRSC09925 | -0.11 | -0.01 | 0.83 | 0.07
Vps13 (Vacuolar protein sorting 13) | DRSC06817 | -0.2 | 0.18 | -0.06 | 0.25
CG13308 | DRSC09979 | -0.44 | -0.14 | – | 0.88
Dpm1 (Dolichyl-phosphate mannosyltransferase subunit 1) | DRSC02018 | -0.06 | 0.43 | 0.58 | -0.14
CG34297 | DRSC12410 | -0.95 | -1.88 | -0.13 | 0.06
scyl (scylla) | DRSC11392 | -0.49 | -0.64 | 0.68 | -0.25
ck (crinkled) | DRSC03509 | 1.31 | 0.83 | -0.67 | -0.96
Gug (Grunge) | DRSC11179 | -0.39 | -0.09 | – | 0.13
asun (asunder) | DRSC16733 | -0.86 | 1.22 | -0.75 | 0.88
CAH4 (Carbonic anhydrase 4) | DRSC22433 | 0.25 | -0.13 | 0.41 | 0.66
sens (senseless) | DRSC09263 | -5.63 | -3.97 | -1.91 | -2.2
tapas | DRSC05950 | 0.27 | -0.34 | 0.41 | 2.33
CG1888 | DRSC06797 | -0.12 | 0.17 | -0.22 | 0.58
Trc8 (TRC8 ring finger protein) | DRSC15437 | 0.13 | 0.62 | -0.52 | 0.45
ida (imaginal discs arrested) | DRSC08163 | 0.16 | 0.91 | 1.19 | 0.21
CG32845 | DRSC07867 | 0.21 | 0.47 | 0.12 | 0.13
CG11841 | DRSC14399 | -0.68 | 0.87 | -0.26 | 0.17
sff (sugar-free frosting) | DRSC10590 | -0.03 | 0.23 | 0.63 | 0.55
CG6628 | DRSC10679 | 0.27 | -0.12 | -0.16 | 0.17
CG33169 | DRSC11853 | 0.01 | 0.32 | 0.76 | 0.42
CG7551 | DRSC10876 | -1.09 | -0.43 | 0.06 | 0.65
CG31373 | DRSC16052 | -1.09 | -1.39 | 0.87 | 0.22
Orc4 (Origin recognition complex subunit 4) | DRSC04634 | -0.7 | -0.58 | -0.36 | -0.85
aph-1 (anterior pharynx defective 1) | DRSC00547 | -1.03 | -0.33 | -0.1 | 0.9
CG13228 | DRSC06348 | 1.1 | -0.09 | -0.77 | -0.5
CG1951 | DRSC15403 | -0.28 | -0.74 | -0.74 | 0.16
Gdi (GDP dissociation inhibitor) | DRSC03330 | 0.26 | -0.04 | -0.25 | 0.26
CG3176 + CR18166 + CG32817 | DRSC17271 | -0.99 | -0.69 | -0.76 | 0.59
CG3176 + CR18166 + CG32817 | DRSC17282 | -0.39 | -0.23 | -0.76 | 0.34
CG3176 + CR18166 + CG32817 | DRSC18288 | -1.95 | -2.2 | 0.64 | 1.01
Arpc1 (Actin-related protein 2/3 complex, subunit 1) | DRSC03438 | -0.81 | -0.71 | -1.46 | 0.22
lncRNA:CR41443 (long non-coding RNA:CR41443) | DRSC07733 | 0.44 | 0.28 | 0.29 | 0.27
CG42634 + CG42635 | DRSC02450 | -0.39 | 0.31 | 0 | 0.22
CG42857 | DRSC12750 | -0.07 | -0.11 | -0.61 | -0.44
CG15877 | DRSC08485 | 0.47 | 0.91 | -0.07 | -0.03
Dop1R1 (Dopamine 1-like receptor 1) | DRSC13020 | 0.43 | -0.23 | 0.29 | -0.06
Dop1R1 (Dopamine 1-like receptor 1) | DRSC13021 | 0.62 | -0.35 | 0.95 | 0.12
Dop1R1 (Dopamine 1-like receptor 1) | DRSC16652 | -1.61 | -2.6 | -1.34 | 3.83

A portion taken from the entries so far, for reference:
predicted target | DRSC id | replicate 1, z-score of dpERK with insulin | replicate 2, z-score of dpERK with insulin | replicate 1, z-score of dpERK under basal conditions | replicate 1, z-score of ERK-YFP with insulin
CG13308 | DRSC09979 | -0.44 | -0.14 | – | 0.88
Dpm1 (Dolichyl-phosphate mannosyltransferase subunit 1) | DRSC02018 | -0.06 | 0.43 | 0.58 | -0.14
CG34297 | DRSC12410 | -0.95 | -1.88 | -0.13 | 0.06
